Measurements reported in the supplement of paper PMC3334620.
In all, about 33,000 sequences were measured (“E-score (-0.5 to 0.5)”: median about -8e-05, highest 2% from about 0.23 on). Some of the results follow.

Target: T1, Nrg2 (UniProt P38082)
T1 sequence: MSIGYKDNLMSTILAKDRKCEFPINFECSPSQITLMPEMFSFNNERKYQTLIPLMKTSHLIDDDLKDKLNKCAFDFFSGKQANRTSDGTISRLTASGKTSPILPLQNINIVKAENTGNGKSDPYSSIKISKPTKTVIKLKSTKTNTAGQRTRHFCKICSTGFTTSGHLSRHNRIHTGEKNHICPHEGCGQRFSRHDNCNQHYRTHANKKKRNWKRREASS
Assay: PBM E-score (8-mer binding enrichment) (E-score (-0.5 to 0.5)); higher = stronger / more preferred TF binding
Conditions: protein concentration: 100 nM; construct: GST-full length
Outline: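 Using PURExpress in vitro transcription/translation, GST-tagged yeast transcription factors were made in full-length or DNA-binding-domain form. These were applied at about 100-200 nM to double-stranded universal all-10-mer Agilent arrays, and bound protein was detected with fluorescent anti-GST. Scans were normalised with masliner before the Universal PBM Analysis Suite assigned E-scores to ungapped eight-base words pooled with their reverse complements.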

In order of falling “PBM E-score” value:
1. AATACAAA  0.269
2. TAGTATGA  0.26
3. GACCAACA  0.224
4. AATTTAAT  0.222
5. CAATACTC  0.217
6. AACATGGG  0.21
7. CCGTTGTC  0.208
8. AGACAATA  0.204
9. GAACCACA  0.2
10. ACCCTTGG  0.198
11. ACACAATA  0.198
12. AAGAACAA  0.194
13. AATATGAT  0.179
14. ATTGTCCG  0.176
15. CTCGATGA  0.173
16. CTGGTTGC  0.17
17. CGCATCGA  0.17
18. GCGATTTA  0.166
19. GGGCAGTA  0.166
20. ACCTCGTC  0.162
21. GATAGGGC  0.162
22. GCTCCAGC  0.161
23. AAAATTGG  0.16
24. ATCACGGC  0.157
25. TAAAGCAA  0.155
26. TATCCAAA  0.153
27. AATGCCGT  0.142
28. CACGATTC  0.142
29. GAAAGCGA  0.14
30. AATTGCCA  0.139
31. CGAAACAC  0.137
32. ACTGTCAT  0.132
33. GGATAATA  0.131
34. CGATGGGC  0.128
35. AACTAAGA  0.126
36. ACACACCA  0.125
37. CGCATAAC  0.119
38. ACGTAGAT  0.117
39. AAATGCAT  0.116
40. CATTATCA  0.115
41. ACATAGGT  0.112
42. ATGGCATC  0.11
43. ACGCGGTG  0.109
44. TGCAGCCA  0.108
45. GAAAGTAC  0.107
46. ACACTAGG  0.106
47. GCCGGAAA  0.104
48. AGCTGGCC  0.104
49. CTCCATAC  0.101
50. AATCACTA  0.0985
51. GGTAAAAA  0.0979
52. ATGAGCTC  0.0893
53. ACGATCGA  0.0838
54. GCTAAAGA  0.0825
55. GCGCGTGA  0.0824
56. GAACCTGC  0.0812
57. AGATTTAC  0.0792
58. GAATTAAC  0.0791
59. CGGACGTC  0.0781
60. GGCATAAC  0.0771
61. CCAATCGC  0.0764
62. TCTGATAA  0.0758
63. TATTCCGA  0.0741
64. TCATAGAA  0.073
65. GATTACGC  0.0724
66. CCGATATC  0.0702
67. CCACATAC  0.0682
68. CTCGCCCA  0.0673
69. GCATCATA  0.0672
70. ATCTATTC  0.0653
71. TACAGTGA  0.0642
72. GAACCTAA  0.0631
73. ACCGCTAA  0.0602
74. AACACAGA  0.0588
75. AGTCGTAA  0.0577
76. CAGGTGTC  0.0574
77. AGGACGAA  0.055
78. GATTCCAC  0.0524
79. GTGCCGGA  0.0495
80. AGCCACTG  0.0457
81. GCAAATGA  0.0451
82. AGATGCTA  0.0384
83. CAGACAGG  0.0365
84. TAAGCCAA  0.0361
85. CCGTCTCG  0.0341
86. AACTGCTA  0.0301
87. CCCAAGCA  0.0289
88. CACGGCGC  0.0276
89. AGATTTCA  0.0272
90. TATCACCA  0.0224
91. CGCCAAAC  0.022
92. GAAGCTCC  0.0217
93. GACAGTGA  0.0197
94. AAGTGATC  0.0173
95. ATATTGGA  0.0164
96. CCTGTTCC  0.0159
97. CCCAAAGA  0.0152
98. CGCGCCAG  0.0135
99. ACACTTGA  0.0129
100. AATTTGCT  0.0122
101. AGTGACGC  0.012
102. GACGATAC  0.0105
103. GTCGCAAC  0.0102
104. TACTGCAA  0.0102
105. GAATCTAA  0.00962
106. ACATCCAT  0.00901
107. AGTGCAGC  0.00819
108. TAGTGGGA  0.0079
109. CTCTTGTA  0.00666
110. CTAGAGGC  0.00362
111. AGAATGTC  0.00292
112. ACTGTCGC  -0.00119
113. AGCCTTCA  -0.00453
114. AGCGAAAG  -0.00512
115. GAGAACAC  -0.00609
116. CATTGCAA  -0.00795
117. CTCTGTTC  -0.00809
118. GGCACGGA  -0.00838
119. GAGTAAGA  -0.0102
120. AGCAAGGC  -0.0107
121. ACCCGGGG  -0.0171
122. CGCCATAA  -0.0189
123. AAAGATTC  -0.0202
124. CGCTTTTA  -0.0218
125. CCATAGCG  -0.024
126. AAAACCAC  -0.0242
127. ATAAGTCC  -0.0254
128. ATCACGCC  -0.026
129. TCAGGAAA  -0.0263
130. GGTACAAA  -0.0265
131. CGTCGCAC  -0.0266
132. CACAAAGA  -0.0269
133. GAAGATGC  -0.0271
134. GTTCCTGA  -0.0302
135. GGTTGCAC  -0.0321
136. GTATTTGA  -0.0333
137. ATTACGTC  -0.0343
138. TGCACACA  -0.0368
139. GATCTAGA  -0.0372
140. GTCCTTTA  -0.04
141. GGGTACAC  -0.0407
142. AACTTGCT  -0.0414
143. CTAACATA  -0.0449
144. TAGTCACA  -0.0452
145. ACGGGATG  -0.0465
146. ATGGTACC  -0.0466
147. CCCGTATC  -0.0469
148. AGATTGGA  -0.0469
149. GGTGGAAA  -0.0517
150. ACACGTGG  -0.0563
151. TACGGACA  -0.0578
152. CTCGGTCA  -0.0604
153. ATCTTGTA  -0.0604
154. AGAGCGAG  -0.0653
155. TATTAAGA  -0.0662
156. CACGCGGC  -0.0674
157. CATCCTAC  -0.068
158. AAGCCGTC  -0.0705
159. AGGACCAC  -0.0737
160. AAGGTGAC  -0.0742
161. CAAATGCA  -0.0764
162. AAAGGAAT  -0.0792
163. AACAAGGC  -0.0824
164. ATTGGGGA  -0.0847
165. AACCACTA  -0.0877
166. GGAGAGAA  -0.0878
167. GGCTTCGA  -0.0892
168. CATACAGC  -0.0898
169. ACCCAGAT  -0.0909
170. GGGTCACA  -0.0942
171. GGGCTCGA  -0.0974
172. GGAGCGAA  -0.0981
173. CGCAGTAG  -0.0995
174. GCGAGAGC  -0.1
175. GGCGATCA  -0.103
176. AAGGACAC  -0.104
177. CGAAAGAG  -0.108
178. CGGTACGC  -0.109
179. CTAGTGAC  -0.11
180. CAGTAGAC  -0.115
181. TCGAAGCA  -0.118
182. GACGCTTA  -0.122
183. CTGTCGGA  -0.127
184. GGTGGTTA  -0.128
185. GACGTGAC  -0.129
186. GGAGGGAA  -0.13
187. ACAAGTCA  -0.132
188. GTAGACGA  -0.133
189. GCTTAACC  -0.136
190. GACTTCCC  -0.137
191. AGAGCCCC  -0.139
192. AACACCTC  -0.142
193. CCGAGCCA  -0.142
194. AAACAGGC  -0.144
195. CTAGAAAA  -0.146
196. GGCGGGAC  -0.148
197. ATGACAGG  -0.148
198. CCTATACC  -0.149
199. AGCCAGCT  -0.149
200. ACGGCTAT  -0.15
201. ATAGAAGA  -0.158
202. GCCACGGC  -0.159
203. ACCTGGAG  -0.16
204. CATGAGCC  -0.166
205. TGCAGGCA  -0.166
206. GAGCCTCA  -0.173
207. GGGAGCAA  -0.177
208. GGACGGGA  -0.185
209. GTGCCTCA  -0.191
210. TACACGCA  -0.194
211. CTAAGGAG  -0.197
212. GCTCGACA  -0.205
213. TCCAGCCA  -0.25
214. AAGGGCTG  -0.263
215. AGCCTCTG  -0.275
216. CCTACGCC  -0.277
217. CCTCTCTA  -0.294
218. CAGGCCTC  -0.306
219. CCCCCGAA  -0.329
